For some of these results: At least one read-out could not be matched to a standard name with certainty. For some of these results: For at least one compound, name, drawing or mass did not settle the structure.
Experiments:
[1] = repeat-dose toxicity studies in rats
[2] = repeat-dose toxicity studies in dogs
W742L/W742C AR mutants = details: cited from earlier work
[3] = test system: prostate cancer cells rendered castration resistant via overexpression of AR; details: cited from earlier work

Compound | systemic exposure at which the effects occurred (AUC comparison) [1] | systemic exposure at which the effects occurred (AUC comparison) [2] | action in W742L/W742C AR mutants (W742L/W742C AR mutants) | agonist activity with AR overexpression [3]
CC(O)c1cc(C(=O)N[C@@H](C)Cn2ccc(-c3ccc(C#N)c(Cl)c3)n2)[nH]n1 (stereo partly shown) [Darolutamide] | in the range of or below the anticipated human exposure | in the range of or below the anticipated human exposure |  | 
CC(O)(CS(=O)(=O)c1ccc(F)cc1)C(=O)Nc1ccc(C#N)c(C(F)(F)F)c1 (stereo not shown) [bicalutamide] |  |  | AR agonists | mixed antagonist/agonist profile

Source: patent US20260256742A1, “ANDROGEN RECEPTOR ANTAGONISTS FOR THE TREATMENT OF PATIENTS WITH BIOCHEMICAL RECURRENCE OF HORMONE SENSITIVE PROSTATE CANCER” (BAYER CONSUMER CARE AG, priority 2023, published 2026)
